Results are given in words; binding and its absence hold for the method and conditions named. Binding seen in cells or lysates may run through a third protein. These calls come from enrichment with a bait or labelling near it, and not all partners need be listed.
B1: LATS1 kinase (large tumor suppressor kinase 1), O95835 1-1130 (protein)
chain: MKRSEKPEGYRQMRPKTFPASNYTVSSRQMLQEIRESLRNLSKPSDAAKAEHNMSKMSTEDPRQVRNPPKFGTHHKALQEIRNSLLPFANETNSSRSTSEVNPQMLQDLQAAGFDEDMVIQALQKTNNRSIEAAIEFISKMSYQDPRREQMAAAAARPINASMKPGNVQQSVNRKQSWKGSKESLVPQRHGPPLGESVAYHSESPNSQTDVGRPLSGSGISAFVQAHPSNGQRVNPPPPPQVRSVTPPPPPRGQTPPPRGTTPPPPSWEPNSQTKRYSGNMEYVISRISPVPPGAWQEGYPPPPLNTSPMNPPNQGQRGISSVPVGRQPIIMQSSSKFNFPSGRPGMQNGTGQTDFMIHQNVVPAGTVNRQPPPPYPLTAANGQSPSALQTGGSAAPSSYTNGSIPQSMMVPNRNSHNMELYNISVPGLQTNWPQSSSAPAQSSPSSGHEIPTWQPNIPVRSNSFNNPLGNRASHSANSQPSATTVTAITPAPIQQPVKSMRVLKPELQTALAPTHPSWIPQPIQTVQPSPFPEGTASNVTVMPPVAEAPNYQGPPPPYPKHLLHQNPSVPPYESISKPSKEDQPSLPKEDESEKSYENVDSGDKEKKQITTSPITVRKNKKDEERRESRIQSYSPQAFKFFMEQHVENVLKSHQQRLHRKKQLENEMMRVGLSQDAQDQMRKMLCQKESNYIRLKRAKMDKSMFVKIKTLGIGAFGEVCLARKVDTKALYATKTLRKKDVLLRNQVAHVKAERDILAEADNEWVVRLYYSFQDKDNLYFVMDYIPGGDMMSLLIRMGIFPESLARFYIAELTCAVESVHKMGFIHRDIKPDNILIDRDGHIKLTDFGLCTGFRWTHDSKYYQSGDHPRQDSMDFSNEWGDPSSCRCGDRLKPLERRAARQHQRCLAHSLVGTPNYIAPEVLLRTGYTQLCDWWSVGVILFEMLVGQPPFLAQTPLETQMKVINWQTSLHIPPQAKLSPEASDLIIKLCRGPEDRLGKNGADEIKAHPFFKTIDFSSDLRQQSASYIPKITHPTDTSNFDPVDPDKLWSDDNEEENVNDTLNGWYKNGKHPEHAFYEFTFRRFFDDNGYPYNYPKPIEYEYINSQGSEQQSDEDDQNTGSEIKNRDLVYV
B2: p130Cas (CRK-associated substrate)/BCAR1 (protein, UniProt P56945 1-870)
chain: MNHLNVLAKALYDNVAESPDELSFRKGDIMTVLEQDTQGLDGWWLCSLHGRQGIVPGNRLKILVGMYDKKPAGPGPGPPATPAQPQPGLHAPAPPASQYTPMLPNTYQPQPDSVYLVPTPSKAQQGLYQVPGPSPQFQSPPAKQTSTFSKQTPHHPFPSPATDLYQVPPGPGGPAQDIYQVPPSAGMGHDIYQVPPSMDTRSWEGTKPPAKVVVPTRVGQGYVYEAAQPEQDEYDIPRHLLAPGPQDIYDVPPVRGLLPSQYGQEVYDTPPMAVKGPNGRDPLLEVYDVPPSVEKGLPPSNHHAVYDVPPSVSKDVPDGPLLREETYDVPPAFAKAKPFDPARTPLVLAAPPPDSPPAEDVYDVPPPAPDLYDVPPGLRRPGPGTLYDVPRERVLPPEVADGGVVDSGVYAVPPPAEREAPAEGKRLSASSTGSTRSSQSASSLEVAGPGREPLELEVAVEALARLQQGVSATVAHLLDLAGSAGATGSWRSPSEPQEPLVQDLQAAVAAVQSAVHELLEFARSAVGNAAHTSDRALHAKLSRQLQKMEDVHQTLVAHGQALDAGRGGSGATLEDLDRLVACSRAVPEDAKQLASFLHGNASLLFRRTKATAPGPEGGGTLHPNPTDKTSSIQSRPLPSPPKFTSQDSPDGQYENSEGGWMEDYDYVHLQGKEEFEKTQKELLEKGSITRQGKSQLELQQLKQFERLEQEVSRPIDHDLANWTPAQPLAPGRTGGLGPSDRQLLLFYLEQCEANLTTLTNAVDAFFTAVATNQPPKIFVAHSKFVILSAHKLVFIGDTLSRQAKAADVRSQVTHYSNLLCDLLRGIVATTKAAALQYPSPSAAQDMVERVKELGHSTQQFRRVLGQLAAA
B3: angiomotin-like 1 (AMOTL1) (protein, UniProt Q8IY63 1-956)
chain: MWRAKLRRGTCEPAVKGSPSACYSPSSPVQVLEDSTYFSPDFQLYSGRHETSALTVEATSSIREKVVEDPLCNFHSPNFLRISEVEMRGSEDAAAGTVLQRLIQEQLRYGTPTENMNLLAIQHQATGSAGPAHPTNNFSSTENLTQEDPQMVYQSARQEPQGQEHQVDNTVMEKQVRSTQPQQNNEELPTYEEAKAQSQFFRGQQQQQQQQGAVGHGYYMAGGTSQKSRTEGRPTVNRANSGQAHKDEALKELKQGHVRSLSERIMQLSLERNGAKQHLPGSGNGKGFKVGGGPSPAQPAGKVLDPRGPPPEYPFKTKQMMSPVSKTQEHGLFYGDQHPGMLHEMVKPYPAPQPVRTDVAVLRYQPPPEYGVTSRPCQLPFPSTMQQHSPMSSQTSSASGPLHSVSLPLPLPMALGAPQPPPAASPSQQLGPDAFAIVERAQQMVEILTEENRVLHQELQGYYDNADKLHKFEKELQRISEAYESLVKSTTKRESLDKAMRNKLEGEIRRLHDFNRDLRDRLETANRQLSSREYEGHEDKAAEGHYASQNKEFLKEKEKLEMELAAVRTASEDHRRHIEILDQALSNAQARVIKLEEELREKQAYVEKVEKLQQALTQLQSACEKREQMERRLRTWLERELDALRTQQKHGNGQPANMPEYNAPALLELVREKEERILALEADMTKWEQKYLEESTIRHFAMNAAATAAAERDTTIINHSRNGSYGESSLEAHIWQEEEEVVQANRRCQDMEYTIKNLHAKIIEKDAMIKVLQQRSRKDAGKTDSSSLRPARSVPSIAAATGTHSRQTSLTSSQLAEEKKEEKTWKGSIGLLLGKEHHEHASAPLLPPPPTSALSSIASTTAASSAHAKTGSKDSSTQTDKSAELFWPSMASLPSRGRLSTTPAHSPVLKHPAAKGTAEKLENSPGHGKSPDHRGRVSSLLHKPEFPDGEMMEVLI

The chains behind the UniProt entries cited, without tags or fusion partners.
UniProt Q9GZV5: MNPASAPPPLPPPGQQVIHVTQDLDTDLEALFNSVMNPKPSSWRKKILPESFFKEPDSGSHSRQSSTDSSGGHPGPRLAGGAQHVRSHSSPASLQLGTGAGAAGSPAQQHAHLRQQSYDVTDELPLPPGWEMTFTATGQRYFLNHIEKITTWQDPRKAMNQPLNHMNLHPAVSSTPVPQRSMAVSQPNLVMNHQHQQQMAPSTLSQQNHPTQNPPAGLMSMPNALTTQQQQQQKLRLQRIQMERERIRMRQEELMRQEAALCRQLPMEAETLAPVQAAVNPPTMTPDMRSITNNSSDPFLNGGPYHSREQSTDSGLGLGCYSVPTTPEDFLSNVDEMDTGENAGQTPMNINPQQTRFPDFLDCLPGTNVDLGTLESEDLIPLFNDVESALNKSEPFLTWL
UniProt P46937: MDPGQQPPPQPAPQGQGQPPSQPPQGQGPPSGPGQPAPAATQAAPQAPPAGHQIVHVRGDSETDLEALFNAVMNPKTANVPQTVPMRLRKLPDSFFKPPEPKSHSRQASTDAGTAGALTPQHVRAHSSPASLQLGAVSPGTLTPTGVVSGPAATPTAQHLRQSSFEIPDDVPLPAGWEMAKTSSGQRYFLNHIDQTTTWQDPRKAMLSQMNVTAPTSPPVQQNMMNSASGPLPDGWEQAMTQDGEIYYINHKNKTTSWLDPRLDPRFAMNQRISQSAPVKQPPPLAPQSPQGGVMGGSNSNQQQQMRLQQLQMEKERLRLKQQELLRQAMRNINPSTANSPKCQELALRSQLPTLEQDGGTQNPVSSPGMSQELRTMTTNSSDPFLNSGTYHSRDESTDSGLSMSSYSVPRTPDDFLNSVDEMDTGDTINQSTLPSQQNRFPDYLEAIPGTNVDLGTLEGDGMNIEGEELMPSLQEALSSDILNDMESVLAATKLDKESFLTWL

Tests used:
Experiment in all cases: proximity labelling; BioID: BirA-Flag-YAP or -TAZ induced with doxycycline 24 h in stable HLF cells, 50 µM biotin 24 h; streptavidin magnetic beads; LC-MS/MS of four replicates; hits against the BirA-only control (fold change ≥ 2; false discovery rate ≤ 0.05)
[1] = target: BirA-tagged TAZ (WW-domain containing transcription regulator 1, WWTR1), N-terminal fusion with the biotin ligase BirA and a Flag-tag, Q9GZV5; details: remark: other sources report otherwise
[2] = target: BirA-tagged YAP (yes-associated protein), N-terminal fusion with the biotin ligase BirA and a Flag-tag (UniProt P46937)
[3] = target: BirA-tagged TAZ (WW-domain containing transcription regulator 1, WWTR1), N-terminal fusion with the biotin ligase BirA and a Flag-tag (UniProt Q9GZV5)

| Binder | binding [1] | binding [2] | binding [3] |
| --- | --- | --- | --- |
| B1 | binds |  |  |
| B2 |  | binds | binds |
| B3 |  | binds | binds |
